Where “and” joins values, the source holds several entries; their conditions need not be identical. Equal values may be shown once. Among all 320,000 compounds or so, about 22,000 (6.9%) were called active. Inconclusive means that the source gave no clear call. Such entries were picked first, then a sample of the others. Calls follow the shape of the dose curve; as a rule, active = well fitted inhibition curve with a large enough effect; inconclusive = small, poorly fitted or top-dose-only effect, or another doubt; inactive = no such curve, though single readings can be large or run the other way. Where the call is inconclusive, the potency comes from a doubtful curve fit.
experiment: Primary qHTS for delayed death inhibitors of the malarial parasite plastid, 96 hour incubation; settings: P. falciparum luciferase reporter growth; series mostly up to 28.7 µM
Summary of the method: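 Plates of compound plus infected erythrocytes (2% hematocrit, 0.05% parasitemia final) incubate 96 hours, 37 C, 5% CO2. Detection reagent added; reduced luminescence from the parasites' luciferase reporter flags inhibition.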
% is scaled to controls: 0 for no effect and ±100 for the full control effect; potency is read from the fitted curve at half-maximal effect.

Row | SMILES | Potency | activity change, negative = inhibition
1 | N=c1c2c(-c3ccccc3)c(-c3ccccc3)n(Cc3ccco3)c2ncn1Cc1ccco1 | inconclusive: 4.65 µM [inhibitor, partial curve, poor fit] | 
2 | O=C(N/N=C/c1ccncc1)c1sc2ccccc2c1Cl | inconclusive: 18.5 µM [inhibitor, single point] | 
3 | COc1ccc(OCC(=O)NNC(=O)C(=O)Nc2ccc(C)cc2)cc1 | inactive | 
4 | Cc1noc(C)c1CN1C(=O)c2ccccc2C1=O | inconclusive: 18.5 µM [inhibitor, single point] | 
5 | CCNC(=S)Nn1cnc2ccccc21 | inactive | 
6 | Cc1cc(/C=C\c2ccc3cc(N(C)C)ccc3[n+]2C)c(C)n1-c1ccccc1 | active: 809 nM and active: 3.3 nM | 
7 | COc1ccccc1OCC(O)Cn1nc(C)cc1C (stereo not drawn) | inconclusive: 8.28 µM [inhibitor, partial curve] | 
8 | CCN1CCN(CCC(=O)Nc2cc(OC)cc(OC)c2)CC1 | inconclusive: 13.1 µM [inhibitor, single point] | 
9 | COc1ccc(C(=O)NCC(c2cccnc2)N2CCN(c3ccccc3OC)CC2)cc1OC (stereo not drawn) | inconclusive: 14.7 µM [inhibitor, single point] | 
10 | O=C(Nc1cccs1)Nc1ccccc1Cl | inconclusive: 10.4 µM [inhibitor, single point] | 
11 | O=C(CSc1nc(O)cc(=O)n1-c1ccccc1)Nc1ccc2c3c(cccc13)CC2 | active: 8.28 µM | 
12 | O=C(CCc1ccccc1)Nc1cc(NC(=O)CCc2ccccc2)cc(C(=O)O)c1 | inactive | 
13 | C/C(CC(=O)Nc1ccc(Cl)c(C(F)(F)F)c1)=N\NC(=O)c1ccccc1O | inconclusive: 5.22 µM [inhibitor, partial curve, poor fit] | 
14 | COc1cc(OC)cc(C(=O)N[C@H](C(=O)Nc2ccccc2N2CCOCC2)C(C)C)c1 | active: 8.28 µM | 
15 | O=C(c1ccco1)N1CCN(CCCCOc2cccc3ccccc23)CC1 | inconclusive: 18.5 µM [inhibitor, single point] | 
16 | Cc1nn(-c2ccccc2)c(N2CCCC2)c1/C=N/NC(=S)Nc1ccccc1F | inconclusive: 10.4 µM [inhibitor, single point] | 
17 | O=C(/C=C/c1ccc(N2CCOCC2)cc1)c1ccccc1 | inconclusive: 2.62 µM [inhibitor, full curve] | 
18 | CC(=O)Nc1ccc(N2Cc3ccccc3C2)cc1 | inconclusive: 14.7 µM [inhibitor, partial curve, poor fit] | 
19 | Cn1c(SCC(=O)NC2CC2)nnc1-c1cccs1 | inactive | 
20 | OCc1ccccc1N=c1ssnc1Cl | inactive | 
21 | Cc1ccc(S(=O)(=O)NC(C(=O)N2CCOCCOCCOCC2)C(C)C)cc1 (stereo not drawn) | inactive | 
22 | CCOc1ccccc1NC(=O)Cn1cnc2c(nnn2-c2cccc(OC)c2)c1=O | inconclusive: 18.5 µM [inhibitor, single point] | 
23 | CC(O)CN1CCN(C(=O)CN2C(=O)NC(c3ccccc3)(c3ccccc3)C2=O)CC1 (stereo not drawn) | inactive | 
24 | CCOC(=O)C1CCCN(C(=O)c2[nH]c3ccc(OC)cc3c2C)C1 (stereo not drawn) | inactive | 
25 | Cc1c(CCC(=O)O)c(=O)oc2cc3occ(C(C)(C)C)c3cc12 | active: 1.04 µM | 

An excerpt from above in order of molecular weight, falling:
Row | SMILES | Potency | activity change, negative = inhibition
13 | C/C(CC(=O)Nc1ccc(Cl)c(C(F)(F)F)c1)=N\NC(=O)c1ccccc1O | inconclusive: 5.22 µM [inhibitor, partial curve, poor fit] | 
6 | Cc1cc(/C=C\c2ccc3cc(N(C)C)ccc3[n+]2C)c(C)n1-c1ccccc1 | active: 809 nM and active: 3.3 nM | 
10 | O=C(Nc1cccs1)Nc1ccccc1Cl | inconclusive: 10.4 µM [inhibitor, single point] | 

Continued:

Row | SMILES | Potency | activity change, negative = inhibition
26 | COc1cccc2sc(Nc3nnc(-c4cccs4)o3)nc12 | inactive | 
27 | CCc1nc2ccccc2n1Cc1cc(=O)n2cc(C)ccc2n1 | active: 1.65 µM | 
28 | Cc1ccc2oc3c(c(=O)c2c1)C(c1cccc(Cl)c1)N(CCCN1CCOCC1)C3=O (stereo not drawn) | inconclusive: 2.33 µM [inhibitor, full curve] | 
29 | CCc1ccc(N(C(=O)c2snc(C(N)=O)c2N)C(C(=O)NCC2CCCO2)c2cccs2)cc1 (stereo not drawn) | inactive | 
30 | CC(=O)c1cc2c(cc1NC(=O)c1cc(C)nn1-c1ccccc1)OCO2 | inconclusive: 14.7 µM [inhibitor, partial curve, poor fit] | 
31 | Cc1nc(SCCC(=O)O)c2ccccc2n1 | inconclusive: 4.15 µM [inhibitor, full curve, poor fit] | 
32 | Cc1cc(/C=N/n2cnnc2)c(C)n1-c1ccc(OCc2ccc(Cl)cc2Cl)cc1 | inconclusive: 18.5 µM [inhibitor, single point] | 
33 | Cc1ccccc1OCCNc1cc(N2CCCCC2)ccc1[N+](=O)[O-] | inconclusive: 18.5 µM [inhibitor, single point] | 
34 | CC(=O)Nc1c(C(=O)NCc2ccccc2)nnn1Cc1ccccc1 | inactive | 
35 | Cc1ccc(OCC(=O)Nc2ccc(CN3CCCCC3)cc2)c(C)c1 | inconclusive: 10.4 µM [inhibitor, single point] | 
36 | CSc1nc2nccc(-c3ccc(Cl)cc3)n2n1 | inactive | 
37 | O=C(NNC(=O)C1CCCO1)c1ccccc1Cl (stereo not drawn) | inconclusive: 18.5 µM [inhibitor, single point] | 
38 | CCC1c2ccc(C)n2CCN1C(=O)Nc1cc(Cl)ccc1OC (stereo not drawn) | inconclusive: 18.5 µM [inhibitor, single point] | 
39 | Cn1c(CCN2CCCCC2)nc2cc(NS(=O)(=O)c3ccc(Cl)cc3)ccc21 |  | inactive: 3.29% [at 5.75 µM]
40 | CCCC(=O)N1CCN(c2nc3ccc(CC)cc3s2)CC1 | inconclusive: 14.7 µM [inhibitor, single point] | 
41 | Cc1cc2nc(CCN(Cc3cccnc3)C(=S)Nc3ccc(F)cc3)[nH]c2cc1C | inconclusive: 10.4 µM [inhibitor, single point] | 
42 | CCC(C)[C@H](NC(=O)OC(C)(C)C)C(=O)NCC1CCC(C(=O)N[C@@H](Cc2ccccc2)C(=O)O)CC1 (stereo partly drawn) | inactive | 
43 | COc1cc(/C=C2/SC(=Nc3ccc(O)cc3)NC2=O)ccc1O | inconclusive: 11.7 µM [inhibitor, single point] | 
44 | CCOc1cc(CNCC2CCCO2)cc(Br)c1OCC(N)=O (stereo not drawn) | inactive | 
45 | COc1ccc(C(CC(=O)O)N2C(=O)CCC2=O)cc1 (stereo not drawn) | inactive | 
46 | COc1ccc(S(=O)(=O)N2CCN(C(=O)CCSc3ccccc3)CC2)cc1 | inconclusive: 13.1 µM [inhibitor, partial curve, poor fit] | 
47 | Cc1cc(NC(=O)c2ccc3nc(C)sc3c2)no1 | inconclusive: 18.5 µM [inhibitor, single point] | 
48 | CCOC(=O)CCc1cccc2c1CCC2=O | inconclusive: 0.233 µM [inhibitor, partial curve, poor fit] | 
49 | COc1ccccc1C(=O)NC(=O)Nc1c(C)cc(C)cc1C | inactive | 
50 | Cn1c(N/N=C/c2c[nH]c3ccccc23)nc2ccccc21 | active: 1.65 µM | 

Row | SMILES | Potency | activity change, negative = inhibition
51 | CC1CN(C(=O)N2c3ccccc3Sc3ccccc32)C(C)CC1=O (stereo not drawn) | inconclusive: 18.5 µM [inhibitor, single point] | 
52 | COc1ccc(C(=O)NC2CCCc3ccccc32)cc1Br (stereo not drawn) | inconclusive: 11.7 µM [inhibitor, single point] | 
53 | CC(C)N(Cc1nc(-c2ccc(Cl)cc2)no1)C(=O)C12CC3CC(CC(C3)C1)C2 | inconclusive: 14.7 µM [inhibitor, single point] | 
54 | COC(=O)CCCC(=O)N1CCCC(C(=O)c2ccccc2SC)C1 (stereo not drawn) | inconclusive: 11.7 µM [inhibitor, single point] | 
55 | CCc1sc(C(=O)Nc2ccc(NC(C)=O)cc2)cc1C | inactive | 
56 | COc1cccc(CNC(=O)c2ccc(C)c(S(=O)(=O)N3CCOCC3)c2)c1 | inconclusive: 2.62 µM [inhibitor, partial curve, poor fit] | 
57 | COC(=O)C1=C(c2ccc(F)cc2OCc2ccccc2)C[C@@H]2CC[C@H]1N2C(=O)NCCO | inconclusive: 16.5 µM [inhibitor, single point] | 
58 | CN(C(=O)Cc1noc2ccccc12)c1ccccc1 | inconclusive: 11.7 µM [inhibitor, partial curve] | 
59 | CCCN(CCC)S(=O)(=O)c1ccc2c(c1)CCCN2C(C)=O | inconclusive: 18.5 µM [inhibitor, single point] | 
60 | CC(C)CNS(=O)(=O)c1ccc(C(=O)Nc2ccc3c(c2)OCCO3)cc1 | inconclusive: 14.7 µM [inhibitor, partial curve, poor fit] | 
61 | COC(=O)c1ccc(/C=N\N2CCN(c3ccccc3)CC2)cc1 | inactive | 
62 | CCN(CCn1cccn1)Cc1cn[nH]c1-c1ccc(-c2ccccc2)cc1 | inactive | 
63 | Cc1cc(Cn2ccnc2)c(C)cc1Cn1ccnc1 | inconclusive: 7.38 µM [inhibitor, partial curve, poor fit] | 
64 | CC(=O)C1C(c2cn(-c3ccccc3)nc2-c2cccs2)NC(=O)NC1(O)C(F)(F)F (stereo not drawn) | inconclusive: 18.5 µM [inhibitor, single point] | 
65 | O=C(Nc1ccccc1Oc1cccnc1)C1CCCN(Cc2cccc(Cl)c2)C1 (stereo not drawn) | inconclusive: 13.1 µM [inhibitor, single point] | 
66 | O=C1/C(=C/c2ccccc2)CSc2sccc21 | inactive | 
67 | COCCn1c(NCc2ccco2)nc2c1c(=O)[nH]c(=O)n2C | inconclusive: 2.33 µM [inhibitor, partial curve, poor fit] | 
68 | O=C(CN1C(=O)CSC1=O)N1CCCC(Nc2ccc(F)cc2)C1 (stereo not drawn) | active: 1.65 µM | 
69 | O=C(CSc1nnc(CNc2cccc(Cl)c2)o1)OC1CCCCC1 | inactive | 
70 | CCOc1ccc(S(=O)(=O)NCCC(=O)NCC(c2ccc(OC)cc2)N2CCCC2)cc1 (stereo not drawn) | inconclusive: 18.5 µM [inhibitor, single point] | 
71 | COc1ccc(Nc2ncnc3sc(C)cc23)c(OC)c1 | inconclusive: 20.8 µM [inhibitor, single point] | 
72 | Cc1cccn2c(=O)c(/C=C(\C#N)S(=O)(=O)c3ccccc3)c(Oc3ccc(Cl)cc3)nc12 | active: 11.7 µM | 
73 | Nc1c(Cl)c(Cl)nc(C(=O)N/N=C/c2cccnc2)c1Cl | inconclusive: 9.28 µM [inhibitor, single point] | 

— PubChem BioAssay AID504834 (National Center for Advancing Translational Sciences (NCATS), 2011)
